Measured values taken from publication doi:10.64898/2025.12.17.695032.
No constants are given. Whether binding was seen depends on the method and setting. Binding seen in cells or lysates may run through a third protein. Some binding calls cover weakened binding; strength is not graded here. Where a sequence is shown, tags or fusion partners need not be part of it.

Biological target: T1, FLAG epitope-tagged SCUBE2 (UniProt Q9NQ36)
T1 sequence: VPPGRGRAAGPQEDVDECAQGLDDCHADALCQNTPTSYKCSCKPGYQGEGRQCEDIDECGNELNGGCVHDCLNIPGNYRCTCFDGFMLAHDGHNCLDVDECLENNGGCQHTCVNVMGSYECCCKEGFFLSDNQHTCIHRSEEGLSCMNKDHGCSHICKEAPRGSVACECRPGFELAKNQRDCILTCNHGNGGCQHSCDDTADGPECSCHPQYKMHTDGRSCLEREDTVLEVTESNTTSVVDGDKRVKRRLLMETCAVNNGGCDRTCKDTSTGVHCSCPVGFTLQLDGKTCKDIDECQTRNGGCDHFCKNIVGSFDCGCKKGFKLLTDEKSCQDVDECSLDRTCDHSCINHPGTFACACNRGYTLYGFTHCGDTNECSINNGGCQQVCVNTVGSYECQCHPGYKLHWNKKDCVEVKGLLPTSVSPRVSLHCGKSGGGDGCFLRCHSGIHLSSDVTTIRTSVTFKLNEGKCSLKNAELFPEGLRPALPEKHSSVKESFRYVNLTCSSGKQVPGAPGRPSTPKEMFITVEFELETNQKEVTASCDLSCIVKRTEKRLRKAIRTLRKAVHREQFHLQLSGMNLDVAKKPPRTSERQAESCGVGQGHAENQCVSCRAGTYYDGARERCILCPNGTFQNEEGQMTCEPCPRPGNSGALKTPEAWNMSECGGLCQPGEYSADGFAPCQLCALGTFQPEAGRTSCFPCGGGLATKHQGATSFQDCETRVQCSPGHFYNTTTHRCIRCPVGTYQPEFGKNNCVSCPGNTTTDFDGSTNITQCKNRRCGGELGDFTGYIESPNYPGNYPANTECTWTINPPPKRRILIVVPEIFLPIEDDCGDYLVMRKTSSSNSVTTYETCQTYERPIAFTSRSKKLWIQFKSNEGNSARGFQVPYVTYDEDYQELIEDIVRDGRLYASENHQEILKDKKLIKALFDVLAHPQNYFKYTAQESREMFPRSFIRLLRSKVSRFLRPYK
Test: co-IP

binding: binds
Substance: HA-tagged PDGFRβ (from UniProt P09619 33-1106) (receptor)
